# From article PMC9086926 (RSC Advances, 2018)
# Experiments:
# [1] = Absorptive permeability across 7 day fast model; conditions: human, Caco-2
# [2] = cited from earlier work
# [3] = Absorptive permeability across traditional 21 day Caco-2 cell model; conditions: human
structure (smiles),measurement,setting,value
COC(=O)C1=C(C)NC(C)=C(C(=O)OC)C1c1ccccc1[N+](=O)[O-] [Nifedipine],Papp A→B at 25 μM,[1],11.7 ± 0.53 ×10⁻⁶ cm/s
same,FA (human absorption fraction),[2],100%
same,Papp A→B at 25 μM,[3],10.7 ± 0.11 ×10⁻⁶ cm/s
